From the RNAGym collection of RNA variant scans (doi:10.1126/science.aae0568)
Variants at the background level are over-represented here.

B1: tRNA (parent)
chain: GUUCCGUUGGCGUAAUGGUAACGCGUCUCCCUCCUAAGGAGAAGACUGCGGGUUCGAGUCCCGUACGGAACG

Variants of: B1
Assay: yeast fitness relative to wild type (ratio to wild type); higher = fitter; tRNA-Arg(CCU), competitive growth, 37 C, YPD
Summary of the method: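 Amplicons of the tRNA-Arg(CCU) gene were sequenced, 100-nucleotide paired-end, from the start population and from each end population of a pooled yeast competition. The competition, in six parallel replicates, lasted 24 hours in YPD at 37°C. Fitness relative to wild type was calculated from changes in genotype frequencies. Genotypes had to have ≥ 100 starting reads, and estimates < 0.5 were set to 0.5.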

| Variant | yeast fitness |
| --- | --- |
| GUUUCGUUGGCAUAAUGGUAACGCGUCACCCUCCUAAGGAGAAGUCUGCGGGUUCGAGUCCGGUGCGGAACG [C4U G12A U28A A45U C62G A65G] | ≤ 0.5 |
| GUUCCGUUGGUGUAAUGGUAACGCGUCUCCCUCUUAAGGAGAAGACUACGGGUUCGAGUCCCGUACGGCACG [C11U C34U G48A A69C] | ≤ 0.5 |
| GUUCCGUUGGCGUAAUGGCCACGCGUCUCCGUCCUAAGGAGAAGACUGCGGGUUCGAGUCCCGUACGGCACG [U19C A20C C31G A69C] | ≤ 0.5 |
| GUGCCGUUGGCGUAAUGGUAACGCGUCUCCCUCCUAAGGAGAGGACUGCGGGUUCGAGUCCCGUUCGGAACG [U3G A43G A65U] | 0.701 |
| GUUCGGUCGGCGUAGUGCUAACGCGUCUCCCUCCUAAGGAGAAGACUGCGGGUUCGAGUCCCGUACAGAACG [C5G U8C A15G G18C G67A] | ≤ 0.5 |
| GUUCCGUUGGCGUAAUGGUAACGUGUCUCCCUCCUAAGGAGAAGCCUGCGGGUUUGAGUCCCGUACCGAACG [C24U A45C C55U G67C] | ≤ 0.5 |
| GUUCCGUUAACGUAAUGGUAACGCGUCUCCGUCCUAAGGAGAAGACUGCGGAUUCGAGUCCAGUACGGAACG [G9A G10A C31G G52A C62A] | ≤ 0.5 |
| GUCCCGUUGGCGAAAUGGUAACGCGUCUCCUUCCUAAGGAAAAGACUGCGGGUUCGAGUCCCGUACGGAACG [U3C U13A C31U G41A] | 0.524 |
| GUUCCGUUGGCGUAAUGGUAACGCGUCUCCCUCCUAAGGAGAAGACUGCCGGUUAGAGUCCCGUACGGAACG [G50C C55A] | 0.619 |
| GUUCCGUUGGCGGAAUGGUAACGCGUUUCCCUCCUAAGCAGAAGACUGUGGGUUCGAGUCCCGUACGGAACG [U13G C27U G39C C49U] | ≤ 0.5 |
| GUUCCGUUGGCGUGAUGGUAAGGCGUCUCGCUCCUAAGGAGAAGACUGCGGGUUCGAGUCCCGUACGAAACG [A14G C22G C30G G68A] | ≤ 0.5 |
| GUUUCGUUGGCGUAAUGGUAACGUGUCUCCCUCCUAAGGAGAGGACUGCGGGUUCGAGUUGCGUACGGAACG [C4U C24U A43G C60U C61G] | ≤ 0.5 |
| GUUCCGUUGGGGUGAUGGUACCGCGUCUCUCUACUAAGGAGAGGACUGCGGGUUCGAGUCCCGUACGGAACG [C11G A14G A21C C30U C33A A43G] | ≤ 0.5 |
| GUUCCGUUGGCGUAAUGGUAACGCGUCUCCCUCAUAAGGAGAAGACUGCAGGUUCGAGUCCCGUACGGAACG [C34A G50A] | 0.742 |
| GAUCCGUUGGCGUAAUGGUAACGCGUCUCCCUCCUAACGAGAACACUGCGGGUUCGAGUCCCGUACGGUACG [U2A G38C G44C A69U] | ≤ 0.5 |
| GAUCUGUUAGCGAAAUGGUAACGAGUCUCCCUCCUAAGGAGAAGCCUGCGGGUUCGAGUCCCGUACGGAACG [U2A C5U G9A U13A C24A A45C] | ≤ 0.5 |
| GUUCCGUUGGCGUAAUGGUAACGCGUCGCCCUCCUCACGAGAAGACUGCGGGUUCGAGUCCCGUACGGAACG [U28G A36C G38C] | ≤ 0.5 |
| GUUCCGUUGGCGUAAUGGUGACGCGUCUCCGUCCUUAGGAGAAGACUGCGGGUUCGAGUCCCGUUCGGAACG [A20G C31G A36U A65U] | ≤ 0.5 |
| GUUCCGUUGGCGUAAUGGUAACCCGUCUCCCUCCCAAGGAGAAGAUUGCGGGUUCGAGUCCCGUACGGAACG [G23C U35C C46U] | ≤ 0.5 |

| Variant | yeast fitness |
| --- | --- |
| GUUCCGUUGGCGUAAUGGUUACGCGUCACCCUCAUAUGGAGAAGACUGCGGGUUCGAGUCCUGUACGGAACG [A20U U28A C34A A37U C62U] | ≤ 0.5 |
| GUUCCGUUGGCGUACUGGUAACCCGUCUCCCUCCUAAGGAGAAGACUGCGGGUUCGAGUUCCGUACGGAACG [A15C G23C C60U] | ≤ 0.5 |
| GUUCCGUUGGCGUAAUGGUAAAGCGUCUCCCUCCUAAGGGGAAGACUGCGCGUUCGAGUCCCGUACGGCACG [C22A A40G G51C A69C] | ≤ 0.5 |
| GUUCCCUUGGCGUAAUGGUAACGAGUCUCCCUCCUAAGGAGAAGACUGCGGAUUCGAGUCCCGUACGGAACG [G6C C24A G52A] | ≤ 0.5 |
| GUGCCGUAGGCGUAAUGGUAACGCGUGUCCCUCCUAAGGAGAAGACUGCAGGUUCGAGUCCCGGACGGAACG [U3G U8A C27G G50A U64G] | ≤ 0.5 |
| GUUCUGUUGGCGUAAUGCUAACGCGUCUCCCUCCUAAGGGGACGACUGCGGGUACGAGUCCCGUACGGAACG [C5U G18C A40G A43C U54A] | 0.72 |
| GUUCCGUUGGCGUAAUGGUAACGCGUCUCCCUCCUACGGAGAAGACUGGGGGUUCGAGUCCCGUAAGGAACG [A37C C49G C66A] | ≤ 0.5 |
| GUUCCGUUGGCGUAAUGGUAACGCGUCUACUUCCUAAGGAGAAGACUGCGGGUUCGAGUCCCGCACGGAACG [C29A C31U U64C] | ≤ 0.5 |
| GUGCCGUUUGCGUAAUGAUGACGCGUCUCCCUCCUAAGGAGAAGACUGCGGGUUCGAGUCCCGUACGGAACG [U3G G9U G18A A20G] | ≤ 0.5 |
| GUUCCGUUGGUGUAAUGGUAACGCGUCUCCUUCCUAACGAGAAGACUGCGGGUUCGAGUCCCGUACGGAACG [C11U C31U G38C] | ≤ 0.5 |
| GUUCCGUUGGCGUAACGGUAACGCGUCUCCCUCCUAAGGAGAAAACUGCGGGUUAGAGUCCCGUACGGAACG [U16C G44A C55A] | ≤ 0.5 |
| GUUCCGUUCGCGUAAUGGUAACGCGACUCCCUCCUAAGGAGAAGACCGUGGGUUCAAGUCCCGUACCGGACG [G9C U26A U47C C49U G56A G67C A69G] | ≤ 0.5 |
| GUUCCGUUGGUGUAAUGGUAACGCGUCUCGCUCCUAAGGCGAAGACUGUGGGUUCGAGUCCCGUACGGAACG [C11U C30G A40C C49U] | ≤ 0.5 |
| GUUCCGUUGGCGUAAUGGUCACGCGUCUCCCUCCUAAGGAGAAGUCUGCGGGUUUGAGUCCCGUACGGAACG [A20C A45U C55U] | ≤ 0.5 |
| GUUCCGUUGGCGUAAUGGUAACGCGUCUCCCUUUUAAGGAGAAGACUGCGGGUUCGACUCCCAUACGGAACG [C33U C34U G58C G63A] | ≤ 0.5 |
| GUUCCGUUGGAGUAAUGGUAGCGCGUCUCCGUCCUUAGGAGAAGACUGCGGGUUCGAGUCCCGUUCGGAACG [C11A A21G C31G A36U A65U] | ≤ 0.5 |
| GUUGCGUUGGCGUAAUGGUAGCGGGUCUCCCUCAUAAGGAGAAGACUCCGGGUUCGAGUCCCGUACGGAACG [C4G A21G C24G C34A G48C] | ≤ 0.5 |
| GUUCCGUUGGUGUAAUGGUAACGCGUCUACCUCCUUAGGAGAAGACUGCCGGUUCGAGUCCUGUACGGAACG [C11U C29A A36U G50C C62U] | ≤ 0.5 |
| GGUCCGUUGGCGAAAUGGUAACGCGUCUCCCUUCUAAGGAGAAGACUGCGGGUUCGAGUCCCGUACGGAACG [U2G U13A C33U] | ≤ 0.5 |
